Assay results: US20090269281A1, “Calcium/Calmodulin-Dependent Protein Kinase Kinase as a Control Point for Cardiac Hypertrophy” (University of North Texas Health Science Center at Fort …, priority 2007, published 2009)
At least one structure is not confirmed: it was looked up by name or label, or the drawing left a doubt.

Test system: ANF, SkA and MEF2 reporters
Test: UII-stimulated ANF, SkA and MEF2 luciferase reporter assay in cardiomyocytes
Type: cell-based, rat
Settings: varying doses of UII; not AdUIIR-infected; data not shown
Source text: Cell Culture and Treatments. […] Plasmids and Adenoviral Constructs.
Transient Transfection and Luciferase Assay.

CC(C)[C@H](NC(=O)[C@@H]1CSSC[C@H](NC(=O)[C@H](CC(=O)O)NC(=O)[C@@H]2CCCN2C(=O)[C@@H](NC(=O)[C@@H](N)CCC(=O)O)[C@@H](C)O)C(=O)N[C@@H](Cc2ccccc2)C(=O)N[C@@H](Cc2c[nH]c3ccccc23)C(=O)N[C@@H](CCCCN)C(=O)N[C@@H](Cc2ccc(O)cc2)C(=O)N1)C(=O)O [UII]
ANF reporter activity in cardiomyocytes without adenoviral UIIR: incompetent to respond to UII
